Laboratory results taken from publication PMC4049591.
No constants are given. Whether binding was seen depends on the method and setting. Binding seen in cells or lysates may run through a third protein. A result given as binding can be weak or reduced; the word gives no strength.

Sequences of proteins named here, by UniProt entry; tags and fusion partners are left off. A change or cut given only in a name is not applied to a line headed by its entry. A line that says so, or that is headed by a name, gives the form on record, which may keep a tag or linker.
Non-glycosylated human sonic hedgehog mutant N278A with HA tag (N278A-HA) (Q15465, form named): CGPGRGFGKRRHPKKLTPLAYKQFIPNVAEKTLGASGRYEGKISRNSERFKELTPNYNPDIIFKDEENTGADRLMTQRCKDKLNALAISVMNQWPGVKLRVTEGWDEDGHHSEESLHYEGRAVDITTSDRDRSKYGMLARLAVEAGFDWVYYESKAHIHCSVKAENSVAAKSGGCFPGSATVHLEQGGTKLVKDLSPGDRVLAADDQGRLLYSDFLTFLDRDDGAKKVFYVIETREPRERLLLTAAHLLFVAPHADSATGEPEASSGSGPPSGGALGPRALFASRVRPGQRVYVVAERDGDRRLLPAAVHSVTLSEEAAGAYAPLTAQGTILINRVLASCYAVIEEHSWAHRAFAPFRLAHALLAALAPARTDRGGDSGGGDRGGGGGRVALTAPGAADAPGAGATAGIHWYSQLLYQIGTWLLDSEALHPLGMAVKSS

Target: Non-glycosylated human sonic hedgehog mutant N278A with HA tag (N278A-HA) (human) (UniProt Q15465)
Experiment: co-IP; cells co-transfected with SHH-HA or N278A-HA and vector, wild type OS-9.2 or R188A-OS-9; lysed in buffer with 1% Triton; immunoprecipitated with HA antibodies; blotted with OS-9 antibodies

binding: binds
Substance: OS-9 R188A mutant (MRH domain mutant unable to bind trimmed glycans) (from UniProt Q13438-2)
